Experimental data: PubChem BioAssay AID1224830 (NIAID, 2016)
Test: 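Regulators of TLR4 signalling towards TNF-alpha in macrophage-like cells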 (primary screen). Cells: human THP-1 monocytic leukaemia cells, TNF dual-luciferase reporter clone, PMA-differentiated to macrophage-like cells. Knock-down reagent: siRNA pool against human genes, 50 nM. Duration: LPS for 4 h, given about 3 days after siRNA transfection. Treatment: bacterial LPS (TLR4 ligand), 10 ng/ml. Read-out: 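TNF firefly reporter luminescence divided by renilla, normalised to the plate median, then turned into a robust z-score for each replicate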. Direction: TNF reporter robust z-score: higher = stronger TNF reporter response to LPS. Rule for the call: 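a well is active when its z-score exceeds 2.8 or falls below -1.5; control wells carry no call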.
The deposit covers about 18,000 reagents; below is a part drawn at random. About 2,900 of all reagents (16%) were called active. 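Calls are made per well; low scores hint the gene aids the LPS response, high scores that it dampens it.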 Entries without a mark were called inactive. Repeated entries: four replicate wells of each siRNA pool. Reagent sequences are not shown.

| gene | TNF reporter robust z-score |
| --- | --- |
| OR4C46 (GeneID 119749) | -0.71 |
| OR4C46 (GeneID 119749) | 0.27 |
| OR4C46 (GeneID 119749) | -0.31 |
| OR4C46 (GeneID 119749) | 0.64 |
| SLC14A2 (GeneID 8170) | -0.34 |
| SLC14A2 (GeneID 8170) | -0.13 |
| SLC14A2 (GeneID 8170) | -0.05 |
| SLC14A2 (GeneID 8170) | 0.48 |
| C11orf68 (GeneID 83638) | -1.51 (active) |
| C11orf68 (GeneID 83638) | -1.13 |
| C11orf68 (GeneID 83638) | -1.09 |
| C11orf68 (GeneID 83638) | -0.86 |
| EHMT1 (GeneID 79813) | -1.71 (active) |
| EHMT1 (GeneID 79813) | -1.8 (active) |
| EHMT1 (GeneID 79813) | -1.97 (active) |
| EHMT1 (GeneID 79813) | -1.58 (active) |
| TRERF1 (GeneID 55809) | -1.14 |
| TRERF1 (GeneID 55809) | -1.1 |
| TRERF1 (GeneID 55809) | -2.02 (active) |
| TRERF1 (GeneID 55809) | -0.54 |
| CLVS2 (GeneID 134829) | -0.63 |
| CLVS2 (GeneID 134829) | -0.06 |
| CLVS2 (GeneID 134829) | -0.69 |
| CLVS2 (GeneID 134829) | -0.85 |
| SCAI (GeneID 286205) | -0.51 |
| SCAI (GeneID 286205) | -0.41 |
| SCAI (GeneID 286205) | -0.53 |
| SCAI (GeneID 286205) | 0.08 |
| SYTL1 (GeneID 84958) | 0.34 |
| SYTL1 (GeneID 84958) | 1.14 |
| SYTL1 (GeneID 84958) | 0.09 |
| SYTL1 (GeneID 84958) | 0.93 |
| CPSF3 (GeneID 51692) | 0.14 |
| CPSF3 (GeneID 51692) | 0.05 |
| CPSF3 (GeneID 51692) | 0.08 |
| CPSF3 (GeneID 51692) | 0.01 |
| DEFB126 (GeneID 81623) | 0.8 |
| DEFB126 (GeneID 81623) | 1.76 |
| DEFB126 (GeneID 81623) | 1.14 |
| DEFB126 (GeneID 81623) | 1.63 |
| MAGOH (GeneID 4116) | -0.06 |
| MAGOH (GeneID 4116) | -0.45 |
| MAGOH (GeneID 4116) | -0.17 |
| MAGOH (GeneID 4116) | -0.09 |
| ATP1A2 (GeneID 477) | 0.04 |
| ATP1A2 (GeneID 477) | 2.04 |
| ATP1A2 (GeneID 477) | 0.86 |
| ATP1A2 (GeneID 477) | 0.43 |
| MRE11 (GeneID 4361) | -0.29 |
| MRE11 (GeneID 4361) | 0.43 |
| MRE11 (GeneID 4361) | -0.66 |
| MRE11 (GeneID 4361) | 0.33 |
| MSH6 (GeneID 2956) | 0.27 |
| MSH6 (GeneID 2956) | 0.36 |
| MSH6 (GeneID 2956) | 0.99 |
| MSH6 (GeneID 2956) | 0.48 |
| RASGRP3 (GeneID 25780) | 0.77 |
| RASGRP3 (GeneID 25780) | 1.24 |
| RASGRP3 (GeneID 25780) | 0.28 |
| RASGRP3 (GeneID 25780) | 1.39 |
| VXN (GeneID 254778) | -0.71 |
| VXN (GeneID 254778) | -0.26 |
| VXN (GeneID 254778) | -1.01 |
| VXN (GeneID 254778) | 0.8 |
| HACL1 (GeneID 26061) | 0.43 |
| HACL1 (GeneID 26061) | -0.76 |
| HACL1 (GeneID 26061) | 0.21 |
| HACL1 (GeneID 26061) | 0.75 |
| CCDC127 (GeneID 133957) | 1.69 |
| CCDC127 (GeneID 133957) | 1.11 |
| CCDC127 (GeneID 133957) | 1.8 |
| CCDC127 (GeneID 133957) | 2.99 (active) |
| EXOSC8 (GeneID 11340) | 0.09 |
| EXOSC8 (GeneID 11340) | -0.45 |
| EXOSC8 (GeneID 11340) | -0.39 |
| EXOSC8 (GeneID 11340) | -0.76 |
| TCF15 (GeneID 6939) | 0.42 |
| TCF15 (GeneID 6939) | 0.45 |
| TCF15 (GeneID 6939) | -0.05 |
| TCF15 (GeneID 6939) | 0.34 |
| CLDN14 (GeneID 23562) | -1.17 |
| CLDN14 (GeneID 23562) | -1.42 |
| CLDN14 (GeneID 23562) | -1.41 |
| CLDN14 (GeneID 23562) | -1.28 |
| FADS1 (GeneID 3992) | -1.18 |
| FADS1 (GeneID 3992) | -1.22 |
| FADS1 (GeneID 3992) | -1.13 |
| FADS1 (GeneID 3992) | -0.33 |
| DCTD (GeneID 1635) | -0.7 |
| DCTD (GeneID 1635) | 0.28 |
| DCTD (GeneID 1635) | -0.13 |
| DCTD (GeneID 1635) | 0.03 |
| CEP19 (GeneID 84984) | 0.34 |
| CEP19 (GeneID 84984) | 0.64 |
| CEP19 (GeneID 84984) | -0.27 |
| CEP19 (GeneID 84984) | 0.13 |
| HENMT1 (GeneID 113802) | 0.6 |
| HENMT1 (GeneID 113802) | -0.12 |
| HENMT1 (GeneID 113802) | 0.73 |
| DYRK4 (GeneID 8798) | -1.76 (active) |
| DYRK4 (GeneID 8798) | -0.7 |
| DYRK4 (GeneID 8798) | -0.68 |
| DYRK4 (GeneID 8798) | -0.99 |
| DDX46 (GeneID 9879) | -1.35 |
| DDX46 (GeneID 9879) | -0.51 |
| DDX46 (GeneID 9879) | -0.85 |
| DDX46 (GeneID 9879) | -0.7 |
| FADS3 (GeneID 3995) | -1.47 |
| FADS3 (GeneID 3995) | -1.22 |
| FADS3 (GeneID 3995) | -1.59 (active) |
| FADS3 (GeneID 3995) | -1.55 (active) |
| RPUSD1 (GeneID 113000) | 2.71 |
| RPUSD1 (GeneID 113000) | 1.81 |
| RPUSD1 (GeneID 113000) | 0.73 |
| RPUSD1 (GeneID 113000) | 1.41 |
| LSM2 (GeneID 57819) | 0.96 |
| LSM2 (GeneID 57819) | -0.75 |
| LSM2 (GeneID 57819) | -0.08 |
| LSM2 (GeneID 57819) | 0.07 |
| CIMAP1C (GeneID 161753) | 2.76 |
| CIMAP1C (GeneID 161753) | 1.63 |
| CIMAP1C (GeneID 161753) | 1.35 |
| CIMAP1C (GeneID 161753) | 1.08 |
| DNAJC3 (GeneID 5611) | -0.85 |
| DNAJC3 (GeneID 5611) | 0.97 |
| DNAJC3 (GeneID 5611) | -0.05 |
| DNAJC3 (GeneID 5611) | -0.37 |
| IRX3 (GeneID 79191) | -0.58 |
| IRX3 (GeneID 79191) | 0.31 |
| IRX3 (GeneID 79191) | 0.16 |
| IRX3 (GeneID 79191) | 0.64 |
| ZNF431 (GeneID 170959) | 0.26 |
| ZNF431 (GeneID 170959) | 0.65 |
| ZNF431 (GeneID 170959) | -0.62 |
| ZNF431 (GeneID 170959) | 0.58 |
| CD46 (GeneID 4179) | -0.76 |
| CD46 (GeneID 4179) | 0.17 |
| CD46 (GeneID 4179) | -0.99 |
| CD46 (GeneID 4179) | -0.55 |
| TOMM40 (GeneID 10452) | 0.39 |
| TOMM40 (GeneID 10452) | 1.67 |
| TOMM40 (GeneID 10452) | 0.21 |

20 of these entries, set out differently:
{"gene": "TRERF1 (GeneID 55809)", "TNF reporter robust z-score": -1.14}
{"gene": "TRERF1 (GeneID 55809)", "TNF reporter robust z-score": -1.1}
{"gene": "TRERF1 (GeneID 55809)", "TNF reporter robust z-score": "-2.02 (active)"}
{"gene": "TRERF1 (GeneID 55809)", "TNF reporter robust z-score": -0.54}
{"gene": "CLVS2 (GeneID 134829)", "TNF reporter robust z-score": -0.63}
{"gene": "CLVS2 (GeneID 134829)", "TNF reporter robust z-score": -0.06}
{"gene": "CLVS2 (GeneID 134829)", "TNF reporter robust z-score": -0.69}
{"gene": "CLVS2 (GeneID 134829)", "TNF reporter robust z-score": -0.85}
{"gene": "SCAI (GeneID 286205)", "TNF reporter robust z-score": -0.51}
{"gene": "SCAI (GeneID 286205)", "TNF reporter robust z-score": -0.41}
{"gene": "SCAI (GeneID 286205)", "TNF reporter robust z-score": -0.53}
{"gene": "SCAI (GeneID 286205)", "TNF reporter robust z-score": 0.08}
{"gene": "SYTL1 (GeneID 84958)", "TNF reporter robust z-score": 0.34}
{"gene": "SYTL1 (GeneID 84958)", "TNF reporter robust z-score": 1.14}
{"gene": "SYTL1 (GeneID 84958)", "TNF reporter robust z-score": 0.09}
{"gene": "SYTL1 (GeneID 84958)", "TNF reporter robust z-score": 0.93}
{"gene": "CPSF3 (GeneID 51692)", "TNF reporter robust z-score": 0.14}
{"gene": "CPSF3 (GeneID 51692)", "TNF reporter robust z-score": 0.05}
{"gene": "CPSF3 (GeneID 51692)", "TNF reporter robust z-score": 0.08}
{"gene": "CPSF3 (GeneID 51692)", "TNF reporter robust z-score": 0.01}
